Test results: publication PMC7819943, “Rice protein-binding microarrays: a tool to detect cis-acting elements near promoter regions in rice”
The list shows a part of the results.

Biological target: T1, OsSMF1 (Oryza sativa, UniProt Q6ZLB0 1-436)
T1 sequence: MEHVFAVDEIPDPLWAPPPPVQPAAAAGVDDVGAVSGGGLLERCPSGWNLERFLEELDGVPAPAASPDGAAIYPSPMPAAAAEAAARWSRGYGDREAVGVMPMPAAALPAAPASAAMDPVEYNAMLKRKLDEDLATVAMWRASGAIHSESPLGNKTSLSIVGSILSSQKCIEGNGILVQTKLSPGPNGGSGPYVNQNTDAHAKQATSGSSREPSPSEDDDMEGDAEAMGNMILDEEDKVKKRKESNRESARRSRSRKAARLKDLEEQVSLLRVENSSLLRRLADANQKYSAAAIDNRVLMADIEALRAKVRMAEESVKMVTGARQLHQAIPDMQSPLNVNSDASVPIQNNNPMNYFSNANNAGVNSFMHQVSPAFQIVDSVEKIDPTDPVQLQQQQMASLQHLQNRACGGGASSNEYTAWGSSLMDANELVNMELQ
Assay: protein-binding microarray (RPBM); PBS, 2% BSA, 51.3 ng/ul salmon testes DNA, 50 uM zinc acetate, 200 nM TF, 25 C, 1 h; high values mean tight binding
Settings: protein: recombinant; tags: N-terminal polyhistidine and DsRed monomer fusion (pET32a); chain copies: 2; label: CyDye5-dUTP incorporated in the synthesized complementary strand; 3' TTTTT single-stranded linker to array surface; dsDNA, one strand shown
Procedure, shortened: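 Polyhistidine-tagged DsRed fusions of transcription factors, joined at the N-terminus, were expressed in E. coli BL21-CodonPlus and isolated on Ni–NTA. They were incubated at 200 nM for 1 h at 25 °C on a custom Agilent array, double-stranded and BSA-blocked, in PBS with 2% BSA, salmon testes DNA and 50 µM zinc acetate. The binding signal is per-feature fluorescence intensity (arbitrary units) read on an Axon 4000B scanner after washing.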

| Sequence | binding signal |
| --- | --- |
| GACAACGTGGGGCCACGCGTACCACGGATGGAGTACAGTCCGGAGTCACCTAGTGCAG | 3660 fluorescence intensity (a.u.) |
| ATAAGATATGCAGCTGACATGTGGACCCCACATGCTTTGCCGGAGTCACCTAGTGCAG | 4140 fluorescence intensity (a.u.) |
| ATGTGTTTGGAGCTTCGTGGTGCTCTGTTCTGCGCGCGTGCGGAGTCACCTAGTGCAG | 3320 fluorescence intensity (a.u.) |
| TATTACTGTACGGAGTATTATCCATGACGAGTATAGGTACCGGAGTCACCTAGTGCAG | 3680 fluorescence intensity (a.u.) |
| GAGAGAGGGAATGGCATGTGGGGCCTATGTGGACCCCACCCGGAGTCACCTAGTGCAG | 5440 fluorescence intensity (a.u.) |
| GAATAAGCGATGTTAACACTGGCAGCGGCTGTGCATGTAGCGGAGTCACCTAGTGCAG | 37500 fluorescence intensity (a.u.) |
| CCAATTCACTCCACCATACTGTTGGCACCTATGATAGAACCGGAGTCACCTAGTGCAG | 3430 fluorescence intensity (a.u.) |
| GCTGGGATTGCCCGCGTGGAGGCGACTCAGCCGTCGGATCCGGAGTCACCTAGTGCAG | 3720 fluorescence intensity (a.u.) |
| TAGCTAACTTAGAGATAGATTAGCATGTATGACACATCAACGGAGTCACCTAGTGCAG | 4500 fluorescence intensity (a.u.) |
| GCCCTAGGGATGACATCATCAGTCGGTTGATGGAGCAGTACGGAGTCACCTAGTGCAG | 7440 fluorescence intensity (a.u.) |
| CTGAAGAATCTGTCTGTTTGCTGACTACAATGTTCTGTTTCGGAGTCACCTAGTGCAG | 4170 fluorescence intensity (a.u.) |
| GGTTGTACTATGCCAATTTGAACCAGCTGTCGATTTATGTCGGAGTCACCTAGTGCAG | 3210 fluorescence intensity (a.u.) |
| AAATTTATGCACACGTGTAGCGATCTCCTAGTCCTGATCGCGGAGTCACCTAGTGCAG | 11400 fluorescence intensity (a.u.) |
| TATTTTGTAATCTCTCTCCTCCACGTAAGTTTATAGTAGGCGGAGTCACCTAGTGCAG | 5960 fluorescence intensity (a.u.) |
| GGTCTAGCCTTAAGCTCGAACGCGGGGTGGTGGTTGTACCCGGAGTCACCTAGTGCAG | 3430 fluorescence intensity (a.u.) |
| AACCTGCGCGCGCTGACGTGTCGCGGTCGCCCGCGACTTCCGGAGTCACCTAGTGCAG | 8660 fluorescence intensity (a.u.) |
| GAATTTTAGAGTGGCCCACGTGTCATCGACAATAAATAAGCGGAGTCACCTAGTGCAG | 5720 fluorescence intensity (a.u.) |
| GTGTCCTCGGAACGAACACGTATTTTCTAATTTACGTGTCCGGAGTCACCTAGTGCAG | 4070 fluorescence intensity (a.u.) |
| GGGTTTAAGGGTTGGTTTGGTTTATGGTCTAGATAGGTCTCGGAGTCACCTAGTGCAG | 3750 fluorescence intensity (a.u.) |
| TGAGATGCGGGAAGGAGATACCAGTGATGGTGGTGTCATTCGGAGTCACCTAGTGCAG | 3530 fluorescence intensity (a.u.) |
| CCACCTATAAATATTGCATCGATCAACTCAAGTTGTCATCCGGAGTCACCTAGTGCAG | 3690 fluorescence intensity (a.u.) |

Some of the entries so far, bar-delimited:
Sequence | binding signal
GGTTGTACTATGCCAATTTGAACCAGCTGTCGATTTATGTCGGAGTCACCTAGTGCAG | 3210 fluorescence intensity (a.u.)
AAATTTATGCACACGTGTAGCGATCTCCTAGTCCTGATCGCGGAGTCACCTAGTGCAG | 11400 fluorescence intensity (a.u.)
TATTTTGTAATCTCTCTCCTCCACGTAAGTTTATAGTAGGCGGAGTCACCTAGTGCAG | 5960 fluorescence intensity (a.u.)

(listing goes on)

| Sequence | binding signal |
| --- | --- |
| AAACAGCTTCCAAATCATTTCCCCTCCTCGTCTCCTCCAGCGGAGTCACCTAGTGCAG | 3560 fluorescence intensity (a.u.) |
| GTTTGACGGTGGTGGAGCATCGATGCGTCAGCCGTGAACTCGGAGTCACCTAGTGCAG | 7120 fluorescence intensity (a.u.) |
| GAGATTTGATGACTGGGATGCCACATGGACACCACGACAGCGGAGTCACCTAGTGCAG | 13300 fluorescence intensity (a.u.) |
| ATATATACCTGCATACACTAGACTAGTATAATACCTGGCACGGAGTCACCTAGTGCAG | 3530 fluorescence intensity (a.u.) |
| TAAGGGTTGTCATATCATGACATACCACTTGAATTTGTCCCGGAGTCACCTAGTGCAG | 4550 fluorescence intensity (a.u.) |
| ACGCCAAATCTGGTGGTAGATCAACCGCATGACTGTCATGCGGAGTCACCTAGTGCAG | 4820 fluorescence intensity (a.u.) |
| ACATCGTCCTAGGATGGGTGTCATCCTATGCTAGGTTGCTCGGAGTCACCTAGTGCAG | 3840 fluorescence intensity (a.u.) |
| CGATCTCAGTCGCCACTTCCATGGCGTGGGCCGCGTGCCACGGAGTCACCTAGTGCAG | 3980 fluorescence intensity (a.u.) |
| TTGGTCCACGTGCTTTTCTGTTGTTTTACATACTCTGGCCCGGAGTCACCTAGTGCAG | 6210 fluorescence intensity (a.u.) |
| TACACAGCTCGTGGACCTCACGGTGCTGTACCAGAAAGCGCGGAGTCACCTAGTGCAG | 3140 fluorescence intensity (a.u.) |
| TGCACGGCCTCGTGAGATGAGATCATGCATGCAGGATTCACGGAGTCACCTAGTGCAG | 18000 fluorescence intensity (a.u.) |
| TACTGATGTTAGAGGACGAAGACGACGTGGCGAAACACTGCGGAGTCACCTAGTGCAG | 7260 fluorescence intensity (a.u.) |
| GGGCCTTGAGCTCCGCCACTGTCAGCCCCGAGCTTCATCGCGGAGTCACCTAGTGCAG | 25800 fluorescence intensity (a.u.) |
| CACGCCAACTAGGATGGATAGATGGGCCACATGTATTCCACGGAGTCACCTAGTGCAG | 3530 fluorescence intensity (a.u.) |
| GGGTCCATATCACCGACAAACGCCAGTTGACGTGGCACTGCGGAGTCACCTAGTGCAG | 16400 fluorescence intensity (a.u.) |
| AGCTCAGCTCTCTCTGCTCTGCTCTTTGCTCGATAACGACCGGAGTCACCTAGTGCAG | 33600 fluorescence intensity (a.u.) |
| TGCCCTTCCCAAAGTGTGCATCTCTTGTGCTGACACTACACGGAGTCACCTAGTGCAG | 4910 fluorescence intensity (a.u.) |
| AGGATGTGTAAGCTCCTGACTCAGAAATCTTAGTCCTCTTCGGAGTCACCTAGTGCAG | 3730 fluorescence intensity (a.u.) |
| CCAATGCCGCGGTGACACGGCGGACAGTCGGACGTACAGTCGGAGTCACCTAGTGCAG | 3150 fluorescence intensity (a.u.) |
| CGGTGATCCCATACTTGGCACGTACACGTGCCCTCTTGATCGGAGTCACCTAGTGCAG | 6030 fluorescence intensity (a.u.) |
| TTCGCGCGCCACCTCCTCGCGCTCGCCTGCTTCTTCTCCCCGGAGTCACCTAGTGCAG | 3380 fluorescence intensity (a.u.) |
